Results taken from PubChem BioAssay AID1671190 (National Center for Advancing Translational Sciences (NCATS), 2021).
Where “and” joins values, the source holds several entries; their conditions need not be identical. Equal values may be shown once. Screen size: about 580,000 compounds; about 6,100 (1.1%) were called active. Inconclusive means that the source gave no clear call. Such entries were picked first, then a sample of the others. Calls come from the whole dose curve; as a rule, active = well fitted inhibition curve with a large enough effect; inconclusive = small, poorly fitted or top-dose-only effect, or another doubt; inactive = no such curve, though single readings can be large or run the other way. Potencies of inconclusive entries are doubtful fits and often do not repeat.
% is set by controls: 0 for no effect and ±100 for the full control effect; potency is the fitted concentration of half-maximal effect.

Chains of the proteins cited; added tags and fusions are not shown. Lines headed by an entry give the natural chain unless they say otherwise; changes in a name come on top.
UniProt P18054: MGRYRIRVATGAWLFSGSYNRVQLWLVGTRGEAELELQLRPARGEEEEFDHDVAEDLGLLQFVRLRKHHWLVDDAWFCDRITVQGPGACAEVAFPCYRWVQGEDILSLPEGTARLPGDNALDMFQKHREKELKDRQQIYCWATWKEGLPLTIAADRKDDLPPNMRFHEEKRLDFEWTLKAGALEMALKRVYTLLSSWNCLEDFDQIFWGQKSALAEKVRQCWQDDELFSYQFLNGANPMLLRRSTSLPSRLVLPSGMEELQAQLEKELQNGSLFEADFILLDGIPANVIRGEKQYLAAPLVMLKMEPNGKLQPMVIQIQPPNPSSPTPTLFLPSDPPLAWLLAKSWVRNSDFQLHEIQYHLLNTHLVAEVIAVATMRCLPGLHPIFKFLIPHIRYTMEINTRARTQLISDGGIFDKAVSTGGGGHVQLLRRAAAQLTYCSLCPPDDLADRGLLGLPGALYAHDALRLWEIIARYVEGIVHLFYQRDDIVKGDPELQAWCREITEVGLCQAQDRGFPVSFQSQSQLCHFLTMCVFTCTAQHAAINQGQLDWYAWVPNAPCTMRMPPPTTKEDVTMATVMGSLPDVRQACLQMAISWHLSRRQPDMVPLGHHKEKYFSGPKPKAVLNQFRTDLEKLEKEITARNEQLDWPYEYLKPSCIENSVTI

Each compound was assayed against Polyunsaturated fatty acid lipoxygenase ALOX12 (Homo sapiens) (UniProt P18054) (assay: Primary qHTS assay for inhibitors of human arachidonate 12S-lipoxygenase (ALOX12): Round 2). Conditions: purified 12hLO, xylenol orange hydroperoxide absorbance; activity change, negative = inhibition: at 108 µM (top of the series) unless noted.
Method in brief: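 Purified human 12hLO at 150 nM in 25 mM Hepes, 0.01% Triton X-100, pH 7.0, preincubated 15 min at room temperature with compound. Reaction started with 40 uM arachidonic acid, 30 min at room temperature. Hydroperoxide measured by Fe-xylenol orange, 573/405 nm absorbance ratio.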
With `O=C(c1cccc(Cl)c1)N1CCN(CCCc2ccccc2)CC1` the Potency was inconclusive: 3.55 µM [inhibitor, full curve, poor fit]. In the case of `CC12CN3CCN(CC(C3)/C1=N/NC(=O)Nc1ccccc1)C2`, the “activity change, negative = inhibition” value is reported as inactive: -1.08%. For `CN(Cc1ccc(Cl)cc1)C(=O)C1CCN(c2ccc(C(F)(F)F)cn2)CC1`, the “activity change, negative = inhibition” value was inactive: -3.92%. In the case of `COC(=O)c1ccccc1NC(=O)C1CCCN(S(=O)(=O)c2ccccc2)C1` (stereo not drawn), the “activity change, negative = inhibition” value is reported as inactive: 1.37%. `COc1cc(/C=C/C(=O)c2ccc3c(c2)OCCO3)cc2c1OCO2` was tested, and the Potency was inconclusive: 8.91 µM [inhibitor, full curve, poor fit]. In the case of `COc1ccc(C(=O)C2CCCN(Cc3c(F)ccc(F)c3F)C2)c(OC)c1` (stereo not drawn), the Potency is reported as inconclusive: 35.5 µM [inhibitor, partial curve, poor fit]. `COc1ccc(OC)c(CCNC(=O)c2nc(-c3ccc(Cl)cc3)n3c2CCCCC3)c1` was tested, and the Potency was inconclusive: 44.7 µM [inhibitor, partial curve, poor fit]. In the case of `CC(NC(=O)c1nccnc1N)c1ccc(Cl)cc1` (stereo not drawn), the Potency is reported as inconclusive: 100 µM [inhibitor, single point]. For `Cc1nn(C)c(Sc2ccccc2N)c1[N+](=O)[O-]`, the Potency was inconclusive: 35.5 µM [inhibitor, partial curve]. For `Cc1ccc(NC(=O)C(C)N(C)Cc2ccc3c(c2)OCCO3)cc1` (stereo not drawn), the “activity change, negative = inhibition” value was inactive: 5.01%. For `Cc1ccc(OCC(=O)Nc2ccc(N3CCN(C(=O)c4ccc(C)cc4)CC3)cc2)cc1`, the “activity change, negative = inhibition” value was inactive: -14.4%. In the case of `O=C(c1ccc(C(F)(F)F)cc1)N1CCNCC1`, the Potency is reported as inconclusive: 79.4 µM [inhibitor, single point]. `COc1cccc2c(=O)n(CC(=O)Nc3ccccc3)ccc12` was tested, and the Potency was inconclusive: 100 µM [inhibitor, single point]. `Clc1cccc(-c2noc(-c3ccc[nH]3)n2)c1` was tested, and the Potency was active: 44.7 µM. With `Cc1cc(C)c2nc(SC3CCOC3=O)cc(C)c2c1` (stereo not drawn) the Potency was inconclusive: 39.8 µM [inhibitor, partial curve, poor fit]. In the case of `Cc1ccc(C(=O)/C=C/c2ccco2)c(O)c1`, the Potency is reported as inconclusive: 35.5 µM [inhibitor, partial curve, poor fit]. With `Nc1cccc(OCC(=O)O)c1` the Potency was inconclusive: 5.62 µM [inhibitor, partial curve, poor fit]. `Cc1ccc(CN2CCC3(CC2)COCCN3C(=O)OCc2ccccc2)o1` was tested, and the “activity change, negative = inhibition” value was inactive: 8.36% [at 176 µM]. `COC(=O)CNC(=O)C1(c2ccccc2)CCC1` was tested, and the “activity change, negative = inhibition” value was inactive: 14.3%. In the case of `Cc1cccc(-c2nnc(SCC(=O)N3c4ccccc4CCc4ccccc43)n2C)c1`, the Potency is reported as inconclusive: 6.31 µM [inhibitor, full curve, poor fit]. `Cc1cccc(OC(=O)c2ccncc2)c1C` was tested, and the “activity change, negative = inhibition” value was inactive: -7.18%. For `CCCCN(Cc1ccccc1)c1ccc(NS(=O)(=O)c2ccc(C)c(C)c2)cc1C(=O)O`, the Potency was inconclusive: 50.1 µM [inhibitor, partial curve, poor fit]. With `CCC(=O)Nc1ccc(-c2csc(NC(C)COC)n2)cc1` (stereo not drawn) the “activity change, negative = inhibition” value was inactive: -23.9%. For `Cc1ccc(NC(=O)CN2CCc3sccc3C2c2cccs2)cc1S(=O)(=O)N(C)C` (stereo not drawn), the “activity change, negative = inhibition” value was inactive: -0.334%. With `Cc1ccccc1N=Nc1c(O)n(C)c2ccccc12` the “activity change, negative = inhibition” value was inactive: 0%. In the case of `CS(=O)(=O)c1[nH]nc(-c2cccc(Cl)c2)c1C#N`, the Potency is reported as inconclusive: 100 µM [inhibitor, single point]. `COc1ccc(C2(NC(C)=O)CCN(Cc3cccnc3)CC2)cc1` was tested, and the Potency was inconclusive: 56.2 µM [inhibitor, partial curve, poor fit]. `CNC(=O)c1ccc(-c2sc3nc(N4CCOCC4)c4c(c3c2N)CCCC4)o1` was tested, and the Potency was inconclusive: 112 µM [inhibitor, partial curve, poor fit]. For `COc1ccc(C(=O)c2ccccc2O)c(O)c1`, the Potency was inconclusive: 1.28 µM [inhibitor, partial curve]. For `O=C(CN1CCCC1)Nc1ccc(OCc2ccccc2)cc1`, the “activity change, negative = inhibition” value was inactive: -11.2%. `CCCCC(=O)NC(=S)Nc1cc(C(=O)O)ccc1OC` was tested, and the Potency was inconclusive: 31.6 µM [inhibitor, partial curve]. `O=C1C=CC2C(c3ccc4c(c3)OCO4)CC1N2Cc1ccccc1` (stereo not drawn) was tested, and the Potency was inconclusive: 63.1 µM [inhibitor, partial curve, poor fit]. In the case of `O=C(Oc1cccc(N2C(=O)CCC2=O)c1)c1ccccc1`, the Potency is reported as inconclusive: 89.1 µM [inhibitor, partial curve, poor fit]. With `CCCn1nnc(NC(=S)NC(=O)c2cccs2)n1` the Potency was inconclusive: 5.01 µM [inhibitor, full curve, poor fit]. In the case of `CC1=C(C(=O)NCc2ccccn2)C2(CCC(C)CC2)OC1=O` (stereo not drawn), the Potency is reported as inconclusive: 1.78 µM [inhibitor, partial curve, poor fit]. `CCOC(=O)c1sc(=S)n(-c2ccccc2OC)c1N` was tested, and the Potency was inconclusive: 56.2 µM [inhibitor, partial curve, poor fit]. `COc1cc(CNCCN2CCOCC2)ccc1OCc1ccc(Cl)cc1` was tested, and the Potency was inconclusive: 50.1 µM [inhibitor, partial curve, poor fit]. For `CCN(CC)S(=O)(=O)c1ccc(S(=O)(=O)N2CCN(CCC#N)CC2)cc1`, the “activity change, negative = inhibition” value was inactive: 436%. For `CC(=O)c1ccc(NC(=O)CN2CCN(c3ccccc3)CC2)cc1`, the Potency was active: 11.2 µM. `O=C(N/N=C/c1ccco1)c1cc(-c2ccccc2)nc2ccccc12` was tested, and the “activity change, negative = inhibition” value was inactive: -0.122%. With `CC(C)(C)OC(=O)N1CCC(n2c(=O)[nH]c3cccnc32)CC1` the Potency was inconclusive: 0.891 µM [inhibitor, full curve, poor fit]. For `O=C(Nc1ccc2c(c1)OCCO2)c1cccnc1Oc1ccc(Cl)cc1`, the Potency was inconclusive: 112 µM [inhibitor, single point]. In the case of `O=C(Cc1cccs1)N1CCCN(C(=O)C2CC2)c2ccccc21`, the “activity change, negative = inhibition” value is reported as inactive: 31.7%. `CCc1cc(=O)oc2c(CN3CCN(C)CC3)c(O)ccc12` was tested, and the “activity change, negative = inhibition” value was inactive: -21.5%. In the case of `Cc1ccc(-n2nnnc2SCc2nc(N)c3ccccc3n2)cc1`, the Potency is reported as inconclusive: 5.62 µM [inhibitor, full curve, poor fit]. With `Cc1ccc2nc(Cl)c(C3CC(c4ccco4)=NN3S(C)(=O)=O)cc2c1` (stereo not drawn) the Potency was inconclusive: 126 µM [inhibitor, single point] and active: 12.6 µM. For `O=C(NC1CCCCC1)N[C@H]1[C@H](O)[C@@H](N2CCC(Cc3ccccc3)CC2)[C@@H]2OC[C@H]1O2`, the Potency was inconclusive: 10 µM [inhibitor, full curve]. With `N/C(=N\OC(=O)CCCCCN1C(=O)c2ccccc2C1=O)c1ccccn1` the Potency was inconclusive: 126 µM [inhibitor, single point]. In the case of `CC1(c2ccc(O)cc2)NC(=O)N(c2ccccc2)N1` (stereo not drawn), the Potency is reported as inconclusive: 39.8 µM [inhibitor, partial curve]. In the case of `S=c1[nH]nc(-c2ccc3c(c2)OCO3)n1-c1ccccc1`, the Potency is reported as inconclusive: 50.1 µM [inhibitor, partial curve, poor fit]. `CC(C)C1CC(=O)NC(SCC(=O)Nc2ccc(Br)cc2)=C1C#N` (stereo not drawn) was tested, and the Potency was inconclusive: 14.1 µM [inhibitor, partial curve, poor fit]. For `CCOCc1ccccc1CNS(=O)(=O)c1cc(Cl)cc(Cl)c1`, the “activity change, negative = inhibition” value was inactive: -27.3%. `CCCn1c(=N)c(C(=O)NCC2CCCO2)cc2c(=O)n3cc(C)ccc3nc21` (stereo not drawn) was tested, and the Potency was inconclusive: 56.2 µM [inhibitor, partial curve, poor fit]. In the case of `CC(C)NC(=S)NCCc1ccc(Cl)cc1Cl`, the Potency is reported as inconclusive: 100 µM [inhibitor, partial curve, poor fit]. With `C[C@H](O)[C@@H]1CN2CCc3c([nH]c4ccc(-c5ccc6c(c5)OCO6)cc34)[C@@H]2C[C@@H]1N(C)C(=O)NC1CCCCC1` the Potency was inconclusive: 28.2 µM [inhibitor, partial curve, poor fit]. For `CCC1S/C(=N/N=C/c2ccco2)N(Cc2ccc(F)cc2)C1=O` (stereo not drawn), the Potency was inconclusive: 112 µM [inhibitor, single point]. In the case of `Cc1ccc(/C=N/n2c(-c3ccccn3)n[nH]c2=S)o1`, the Potency is reported as inconclusive: 2.82 µM [inhibitor, full curve, poor fit]. In the case of `CCN(CC)c1nc(C)nc2c1cnn2CCc1ccccc1`, the Potency is reported as inconclusive: 35.5 µM [inhibitor, partial curve, poor fit]. In the case of `Cc1ccc(NC(=O)C2=C(c3ccccc3)NC(=S)NC2c2ccc(C(C)C)cc2)cc1` (stereo not drawn), the Potency is reported as inconclusive: 39.8 µM [inhibitor, partial curve, poor fit]. `Cc1cccnc1NC(=O)C(c1ccccc1)c1ccccc1` was tested, and the Potency was inconclusive: 100 µM [inhibitor, partial curve, poor fit]. In the case of `Cc1oc2cc(Br)c(O)c(Br)c2c1C(=O)c1ccccc1`, the Potency is reported as inconclusive: 56.2 µM [inhibitor, partial curve, poor fit]. `Cc1c(CC(=O)NCC(=O)NCC(=O)O)c(=O)oc2cc3c(cc12)CCC(C)(C)O3` was tested, and the Potency was inconclusive: 39.8 µM [inhibitor, single point]. `COc1ccc(C)cc1NC(=O)CSc1nnc(-c2ccco2)n1Cc1ccco1` was tested, and the Potency was inconclusive: 25.1 µM [inhibitor, full curve, poor fit]. For `CC1=NN(C(N)=S)C(=O)C1N=Nc1ccc(F)cc1` (stereo not drawn), the Potency was inconclusive: 17.8 µM [inhibitor, partial curve, poor fit]. For `Cc1ccc(NC(=O)c2ccccc2Oc2ccccc2)cc1S(=O)(=O)N(C)C`, the “activity change, negative = inhibition” value was inactive: -6.1%. For `C=C(C)C(=O)OCCCCCCOc1ccc(C(=O)O)cc1`, the “activity change, negative = inhibition” value was inactive: 0.381%. `CCOC(=O)c1c(-c2ccccc2)csc1NC(=O)CCN1CCOCC1` was tested, and the Potency was inconclusive: 5.01 µM [inhibitor, full curve, poor fit]. With `Cc1cc(C)cc(OCC(O)Cn2c(C)cc(=O)n3ncnc23)c1` (stereo not drawn) the “activity change, negative = inhibition” value was inactive: 0.926%.
